Measurements reported in PubChem BioAssay AID493246 (Drosophila RNAi Screening Center, 2011)
Screen: 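Genome-wide search for dsRNAs that reduce cell number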 (primary screen). Cell system: Drosophila Kc and S2R+ cells. Reagents: long dsRNA against Drosophila genes. Detection: 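Cell number per well after knock-down, printed as raw plate values; calls were based on per-plate z-scores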. Direction: Kc cell number and S2R+ cell number: higher = more cells remaining. Call rule: 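Active when the per-plate z-score of cell number is 3 or more in the direction of fewer cells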.
In all, the deposit lists about 21,000 reagents; this is a random part of those that have a named target and a result. Over the whole deposit, 429 (2%) got an active call. 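Values are raw and not normalised between plates; calls rest on per-plate z-scores that were not deposited.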 Unmarked entries are inactive. A plus sign joins genes that one reagent is predicted to hit. Not given: the amount of reagent, the time to read-out.

no.	Target gene	amplicon	Kc cell number, rep 1	Kc cell number, rep 2	S2R+ cell number, rep 1	S2R+ cell number, rep 2
1	CG10970 (GeneID 31830)	DRSC17772	6.07e5		9.40e5	
2	CG11658 (GeneID 39319)	DRSC09852	1.43e6	1.47e6	1.16e6	1.26e6
3	SdhC (GeneID 41340)	DRSC16088	1.78e6	1.74e6	1.15e6	1.24e6
4	CG11379 (GeneID 31062)	DRSC18629	1.62e6	1.61e6	1.10e6	1.24e6
5	CG1418 (GeneID 36035)	DRSC06447	1.61e6	1.54e6	1.33e6	1.41e6
6	Men (GeneID 47173)	DRSC12924	1.61e6	1.75e6	1.12e6	1.28e6
7	Men (GeneID 47173)	DRSC16738	1.28e6	1.32e6	9.83e5	1.10e6
8	Oscillin (GeneID 33783)	DRSC03001	1.29e6	1.31e6	5.86e5	9.83e5
9	Nepl13 (GeneID 42699)	DRSC15632	1.44e6	1.46e6	9.77e5	1.04e6
10	Cpsf73 (GeneID 42240)	DRSC16291	1.67e6	1.76e6	1.12e6	1.21e6
11	CG4291 (GeneID 33264)	DRSC00650	1.41e6	1.39e6	1.03e6	1.20e6
12	CG9114 (GeneID 32460)	DRSC20155	1.61e6	1.63e6	1.03e6	1.12e6
13	CG42514 (GeneID 8674108)	DRSC10428	1.58e6	1.70e6	1.17e6	1.30e6
14	CG32248 (GeneID 317938)	DRSC08102	1.58e6	1.61e6	1.08e6	1.29e6
15	CG8043 (GeneID 41030)	DRSC16368	1.30e6	1.43e6	1.14e6	1.32e6
16	Ref1 (GeneID 44029)	DRSC12497	1.47e6	1.64e6	1.04e6	1.16e6
17	ome (GeneID 44297)	DRSC09322	1.49e6	1.58e6	1.09e6	1.25e6
18	ome (GeneID 44297)	DRSC10282	1.32e6	1.38e6	1.18e6	1.32e6
19	ome (GeneID 44297)	DRSC11380	1.43e6	1.39e6	1.20e6	1.33e6
20	RpS8 (GeneID 43532)	DRSC16318	9.31e5 (active)	9.55e5	7.36e5	8.50e5
21	CG6602 (GeneID 38691)	DRSC10673	1.57e6	1.53e6	1.25e6	1.20e6
22	loopin-1 (GeneID 36847)	DRSC06888	1.30e6	1.32e6	1.18e6	1.26e6
23	Polr2F (GeneID 48312)	DRSC12366	1.63e6	1.74e6	9.12e5	9.87e5
24	insb (GeneID 36967)	DRSC06995	1.46e6	1.53e6	1.13e6	1.23e6
25	CG42565 (GeneID 37598)	DRSC04154	1.60e6	1.66e6	1.38e6	1.40e6
26	CG11583 (GeneID 326206)	DRSC08202	1.40e6	1.48e6	1.02e6	1.03e6
27	prd (GeneID 34629)	DRSC03597	1.36e6	1.35e6	1.34e6	1.32e6
28	CG14635 (GeneID 31032)	DRSC17945	1.59e6	1.65e6	9.80e5	1.16e6
29	CG30394 (GeneID 37437)	DRSC04074	1.52e6	1.62e6	1.29e6	3.08e5
30	CG30394 (GeneID 37437)	DRSC04260	1.54e6	1.61e6	1.32e6	2.94e5
31	CG14642 (GeneID 40532)	DRSC12228	1.66e6	1.66e6	1.25e6	1.41e6
32	CG10137 (GeneID 35241)	DRSC02014	1.17e6	1.32e6	1.16e6	1.20e6
33	CG10137 (GeneID 35241)	DRSC02015	1.54e6	1.67e6	1.31e6	4.28e5
34	CG42260 (GeneID 37614)	DRSC03953	5.49e5		8.30e5	
35	CG42260 (GeneID 37614)	DRSC04172	1.51e6	1.59e6	1.23e6	1.36e6
36	CG42260 (GeneID 37614)	DRSC04385	1.66e6	1.72e6	1.23e6	1.35e6
37	Tmtc4 (GeneID 41867)	DRSC15702	1.26e6	1.30e6	1.21e6	1.33e6
38	CG34051 (GeneID 3885660)	DRSC01739	1.61e6	1.68e6	1.08e6	1.13e6
39	heix (GeneID 34961)	DRSC03542	1.16e6	1.17e6	1.16e6	1.13e6
40	mtTFB1 + Ccdc56	DRSC10809	1.39e6	1.41e6	1.20e6	1.17e6
41	Rsph9 (GeneID 318950)	DRSC01594	1.50e6	1.57e6	9.43e5	1.12e6
42	CG42795 (GeneID 41252)	DRSC12772	1.72e6	1.85e6	1.11e6	1.44e6
43	CG42795 (GeneID 41252)	DRSC15533	1.45e6	1.43e6	1.16e6	1.26e6
44	CG5033 (GeneID 37036)	DRSC07410	1.26e6	1.36e6	1.02e6	1.08e6
45	CG31601 (GeneID 318835)	DRSC03678	4.62e5		8.52e5	
46	CG31759 (GeneID 326158)	DRSC01230	1.55e6	1.58e6	1.07e6	1.27e6
47	CG4942 (GeneID 39044)	DRSC10462	1.41e6	1.53e6	1.33e6	1.27e6
48	CG9192 (GeneID 38134)	DRSC08639	1.25e6	1.35e6	9.68e5	1.17e6
49	Jon99Ciii (GeneID 43543)	DRSC16859	1.37e6	1.42e6	8.34e5	9.21e5
50	CG14770 (GeneID 31085)	DRSC17947	1.48e6	1.45e6	1.01e6	1.14e6
51	CG3216 (GeneID 37376)	DRSC04347	1.65e6	1.77e6	1.36e6	4.43e5
52	CG2065 (GeneID 35707)	DRSC06813	1.74e6	1.98e6	1.32e6	1.74e6
53	ADD1 (GeneID 36278)	DRSC07135	1.32e6	1.37e6	1.10e6	1.18e6
54	CG8252 (GeneID 35884)	DRSC07126	1.43e6	1.47e6	1.25e6	1.31e6
55	CG12420 (GeneID 41249)	DRSC14514	1.36e6	1.31e6	1.00e6	1.16e6
56	CG14752 (GeneID 35840)	DRSC06488	1.64e6	1.65e6	1.35e6	1.50e6
57	mamo (GeneID 32353)	DRSC19370	1.75e6	1.74e6	1.01e6	1.15e6
58	CG14022 (GeneID 33763)	DRSC02352	1.63e6	1.66e6	1.20e6	1.45e6
59	CG17646 (GeneID 33354)	DRSC00507	1.36e6	1.36e6	1.12e6	1.25e6
